{
  "source": "patent US20020111360A1",
  "about": "“Quinazoline formulations and therapeutic use thereof” (PARKER HUGHES INSTITUTE, priority 1999, published 2002)",
  "key": {"[1]": {"system": "RBL-2H3 mast cell line", "assay": "Mast cell inhibition assay (β-hexosaminidase release)", "format": "cell-based", "conditions": "WHI-P131 concentration of 30 μM"}, "[2]": {"system": "RBL-2H3 mast cell line", "conditions": "unformulated, at ≧30 μM, dose-dependent; cited from earlier work"}},
  "note": "For at least one compound, name, drawing or mass did not settle the structure.",
  "data": [
    {"smiles": "COc1cc2ncnc(Nc3ccc(O)cc3)c2cc1OC", "note": "[WHI-P131, 4-(4′-Hydroxylphenyl)-amino-6,7-dimethoxyquinazoline]", "values": [
      {"measurement": "Inhibition of mast cell function", "setting": "[1]", "result": "Virtually complete inhibition"},
      {"measurement": "Inhibition of mast cell degranulation and β-hexosaminidase release", "setting": "[2]", "result": "near to complete inhibition"}
    ]}
  ]
}
